The source of these data is US11732048B2, “Anti-axl antagonistic antibodies” (BERGEN TEKNOLOGIOVERFØRING AS, priority 2016, dated 2023).

This data set concerns MDA-MB-231 cells. The data set can be described thus: Tumour cell killing using antibody-Saporin conjugates (XTT/PMS viability). The format is cell-based, human. As to conditions: comparison referring to Table 4. On the procedure:
For generation of immunotoxin, the chimeric MAb was non-covalently coupled to a plant toxin Saporin using FabFc-ZAP human conjugate (4.5 nM final concentration) (Advanced Targeting Systems, Cat. no. IT-65). The effect of chAb-Saporin internalization on tumour cell viability was tested using Axl-positive tumour cell line MDA-MB-231 (human triple negative breast carcinoma). Eight hundred cells were seeded per well in 96-well plates in DMEM/F-12 media supplied with 10% FBS, L-glutamine (4 mM), streptomycin (5 μg/ml) and penicillin (5 U/ml) and allowed to attach for 16 hours. The cells were incubated with different dilutions of immunotoxin chAb-Saporin for 72 hrs. The viability of the cells was determined by performing an XTT/PMS assay using a CLARIOstar® microplate reader (BMG LABTECH)
Unconjugated Saporin and an isotype control antibody (human IgG1) coupled to Saporin (control SAP) were used as negative controls.
Tumour cell killing using antibody-Saporin conjugates performed as described in Example 20. A comparison of two variants of humanised 10G5 and YW327.6S2 was performed.

B1: H1L1: humanised 10G5 variant; presumably VH GH1 (SEQ ID NO: 1) with VL GL1 (SEQ ID NO: 3) (antibody, V domains shown)
VH: EVQLVQSGAGLVQPGGSVRLSCAASGYSFTDFYINWVRQAPGKGLEWIARIFPGGDNTYYNEKFKGRFTLSADTSSSTAYLQLNSLRAEDTAVYYCARRGLYYAMDYWGQGTLVTVSS
VL: DIQMTQSPSSLSASVGDRVTITCRSSQSLVHSNGIPYLHWYQQKPGKAPKLLIYRVSNRFSGVPSRFSGSGSGTDFTLTISSLQPEDFATYYCSQGTHVPPTFGQGTKVEIK
modifications: hu10G5 VH(GH1); hu10G5 VL(GL1)
Take B1: the “EC50 lower than that of the chimeric antibody” value is given as “at least 35%”.

B2: H2L1: humanised variant of 10G5; presumably VH GH2 (SEQ ID NO: 2) with VL GL1 (SEQ ID NO: 3) (antibody, V domains shown)
VH: EVQLVESGGGLVQPGGSLRLSCAASGYSFTDFYINWVRQAPGKGLEWVARIFPGGDNTYYNEKFKGRFTLSADTSKSTAYLQMNSLRAEDTAVYYCARRGLYYAMDYWGQGTLVTVSS
VL: DIQMTQSPSSLSASVGDRVTITCRSSQSLVHSNGIPYLHWYQQKPGKAPKLLIYRVSNRFSGVPSRFSGSGSGTDFTLTISSLQPEDFATYYCSQGTHVPPTFGQGTKVEIK
modifications: hu10G5 VH(GH2); hu10G5 VL(GL1)
Turning to B2, the “EC50 lower than that of the chimeric antibody” value is “at least 50%”.
